Measured values from the supplement of paper PMC10338343.
± gives the standard deviation. The entries are a selection whose mix differs from that of the whole data set. Many entries were measured with a wide error. This is one part of the list.

Key:
[1] = test system: MILI (PIWIL2) piRISC loaded with L1MC piRNA (26 nt); test: pre-steady-state target cleavage rate (min^-1); higher = faster piRNA-guided slicing of the target; conditions: guide: L1MC piRNA 5'p-UAACUAAAUACUAUGCAAGCUGUAGG
Procedure, shortened: (§1)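 The pre-steady-state cleavage rate was calculated from a burst-and-steady-state fit. Data came from Cleave-'n-Seq, in which […] transcribed, DNA-blocked target RNA library was mixed with 1 nM active affinity-purified piRISC carrying one synthetic guide, with or without 500 nM GTSF1 partner protein, in HEPES–potassium acetate buffer at 33 °C for 0–8 or 0–960 min. Uncleaved targets were sequenced and normalised to depth and to weakly complementary targets, three trials were pooled, and k3 was capped at 0.0001 min^-1.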

[2] = test system: MIWI (PIWIL1) piRISC loaded with L1MC piRNA (30 nt); test: as above; conditions: guide: L1MC piRNA 5'p-UAACUAAAUACUAUGCAAGCUGUAGGUCCU; auxiliary factor: none (no GTSF1)
Procedure, shortened: as §1

[3] = test system: EfPiwi piRISC loaded with L1MC piRNA (26 nt); test: pre-steady-state target cleavage rate (min^-1); guide: L1MC piRNA 5'p-UAACUAAAUACUAUGCAAGCUGUAGG; MIWI and MILI are mouse PIWI proteins and EfPiwi is from a freshwater sponge; tags in brackets are library labels; higher = faster piRNA-guided slicing of the target
Procedure, shortened: as §1

[4] = auxiliary factor: none (no GTSF1)
[5] = auxiliary factor: 500 nM Ephydatia muelleri Gtsf1
[6] = auxiliary factor: none (no Gtsf1)

Sequence	pre-steady-state target cleavage rate [1, 4]	pre-steady-state target cleavage rate [2]	pre-steady-state target cleavage rate [3, 5]	pre-steady-state target cleavage rate [3, 6]	pre-steady-state target cleavage rate ([1]; auxiliary factor: 500 nM mouse GTSF1)
UCCUGGAUGUCGUUGCAUAGUAUUUUGUUA	0.00287 ± 0.0034	0.00262 ± 0.0027	0.000507 ± 0.01	0.000214 ± 0.043	–
UCCUGGAUCAGCUUGCAUACAAUUUAGUUA	0.0021 ± 0.0029	0.00266 ± 0.0028	0.00126 ± 0.0034	0.000439 ± 0.014	–
UCCUGGUACAGCUUGCAUACAAUUUAGAAA	0.00151 ± 0.005	0.000925 ± 0.0092	0.00285 ± 0.0029	0.000361 ± 0.018	–
UCCUGGUACAGCUAGCAUAGUAUUUAGAAA	0.00184 ± 0.0037	0.00211 ± 0.0037	0.00319 ± 0.0022	0.000322 ± 0.018	–
UCCUGGAACAGCUUGGUAAGUAUUUACAAA	0.000833 ± 0.0066	0.00104 ± 0.006	0.00184 ± 0.007	0.000384 ± 0.021	–
UCCUGGUACAGCUUGCAUAGUAAAAACAAA	0.00171 ± 0.0039	0.00131 ± 0.0061	0.000823 ± 0.0048	0.000214 ± 0.039	–
UCCUGGAUGAGCUUGCAUAGAUAUUAGAAA	0.000574 ± 0.0094	0.000932 ± 0.007	0.000345 ± 0.0095	0.000575 ± 0.012	–
UCCUGGUACAGCUACCAUAGUAUUUACAAA	0.000565 ± 0.01	0.000269 ± 0.014	0.000486 ± 0.0098	0.00031 ± 0.023	–
UCCUGGAUGUCGUUGCAUAGUAAUUAGAUA	0.000623 ± 0.0077	0.000717 ± 0.01	0.00169 ± 0.0047	0.000382 ± 0.018	–
UCCUCCUACAGCUUGCUAAGUAUUUAGAAA	0.00126 ± 0.0046	0.00114 ± 0.0062	0.002 ± 0.0042	0.000415 ± 0.01	–
UCCUGGAUGAGCAUCCAUAGUAUUUAGUUA	0.000885 ± 0.01	0.000192 ± 0.025	0.00201 ± 0.0034	0.000125 ± 0.037	–
UCCUGGAUGAGCUUGCAUAGUAUAAUGUAA	0.000745 ± 0.0066	0.00104 ± 0.0044	0.000918 ± 0.0035	0.000979 ± 0.012	–
UCCUGGAUGUCGUUGCAUAGCAUUUAGUUA	0.00159 ± 0.0057	0.00114 ± 0.0071	0.000784 ± 0.0048	0.000335 ± 0.018	–
UCCUCCUACAGCUUGCAUAGUAUUAUGUAA	0.000903 ± 0.005	0.00147 ± 0.0033	0.00434 ± 0.0026	0.000495 ± 0.011	–
UCCUGGAACAGCUUGCAUAGUAAAUAGUAA	0.00164 ± 0.0046	0.00285 ± 0.0041	0.00128 ± 0.0038	0.000312 ± 0.021	–
UCCUGGAUCAGCUUGCAUACUAUUUACAAA	0.000905 ± 0.0057	0.00172 ± 0.0044	0.00243 ± 0.0026	0.000514 ± 0.012	–

A different layout for some results above.
Sequence,"pre-steady-state target cleavage rate [1, 4]",pre-steady-state target cleavage rate [2],"pre-steady-state target cleavage rate [3, 5]","pre-steady-state target cleavage rate [3, 6]",pre-steady-state target cleavage rate ([1]; auxiliary factor: 500 nM mouse GTSF1)
UCCUGGUACAGCUACCAUAGUAUUUACAAA,0.000565 ± 0.01,0.000269 ± 0.014,0.000486 ± 0.0098,0.00031 ± 0.023,–
UCCUGGAUGUCGUUGCAUAGUAAUUAGAUA,0.000623 ± 0.0077,0.000717 ± 0.01,0.00169 ± 0.0047,0.000382 ± 0.018,–
UCCUCCUACAGCUUGCUAAGUAUUUAGAAA,0.00126 ± 0.0046,0.00114 ± 0.0062,0.002 ± 0.0042,0.000415 ± 0.01,–
UCCUGGAUGAGCAUCCAUAGUAUUUAGUUA,0.000885 ± 0.01,0.000192 ± 0.025,0.00201 ± 0.0034,0.000125 ± 0.037,–
UCCUGGAUGAGCUUGCAUAGUAUAAUGUAA,0.000745 ± 0.0066,0.00104 ± 0.0044,0.000918 ± 0.0035,0.000979 ± 0.012,–
UCCUGGAUGUCGUUGCAUAGCAUUUAGUUA,0.00159 ± 0.0057,0.00114 ± 0.0071,0.000784 ± 0.0048,0.000335 ± 0.018,–

(further entries)

Sequence	pre-steady-state target cleavage rate [1, 4]	pre-steady-state target cleavage rate [2]	pre-steady-state target cleavage rate [3, 5]	pre-steady-state target cleavage rate [3, 6]	pre-steady-state target cleavage rate ([1]; auxiliary factor: 500 nM mouse GTSF1)
UCCUGGAUGAGCUUCCAUAGUAUAUAGUUA	0.000364 ± 0.017	0.000252 ± 0.014	0.000454 ± 0.0079	0.000157 ± 0.048	–
UCCUGGUACAGCUUGCAUACAAUUUUCAAA	0.00118 ± 0.0056	0.000835 ± 0.0044	0.00058 ± 0.0069	0.000393 ± 0.019	–
UCCUGGAACAGCAUCCAUAGUAUUUAGUUA	0.00189 ± 0.0028	0.00138 ± 0.0037	0.0025 ± 0.0021	0.000334 ± 0.017	–
UCCUGGAUGAGCUUGCAUAGUAAAAAGUUA	0.00103 ± 0.0065	0.000878 ± 0.0047	0.000594 ± 0.0065	0.000957 ± 0.013	–
UCCUGGUACAGGUUGCAUAGUAUUUUCAAA	0.00174 ± 0.0046	0.00102 ± 0.0056	0.0011 ± 0.0033	0.000551 ± 0.015	–
UCCUGGAUGUGCUUGCAUACUAUUUAGAAA	0.000715 ± 0.0076	0.00199 ± 0.004	0.00185 ± 0.0019	0.000259 ± 0.027	–
UCCUGCUACAGCUUGCAUAGUUAAUAGAAA	0.00084 ± 0.0056	0.00164 ± 0.0045	0.00122 ± 0.0042	0.000284 ± 0.015	–
UCCUGCUACAGCUUGCAUUCAAUUUAGUUA	0.00197 ± 0.0027	0.000337 ± 0.0096	0.00103 ± 0.0053	0.000246 ± 0.017	–
UCCUGGAACAGCUUGCAUAGUAAUUACAAA	0.000844 ± 0.0072	0.00102 ± 0.0076	0.00292 ± 0.0029	0.000471 ± 0.014	–
UCCUGGAUGAGCUUGCAUAGUCAUUUAGUUA	0.00202 ± 0.0045	0.00339 ± 0.0039	0.000454 ± 0.0073	0.000354 ± 0.017	–
UCCUGGAUGAGCUUGCAUAGAUUUUACAAA	0.000617 ± 0.0088	0.000305 ± 0.009	0.000922 ± 0.0045	0.0001 ± 0.049	–
UCCUCCUACAGCUUGCAUAAGUAUUUAGUUA	0.00139 ± 0.0038	0.000918 ± 0.0073	0.00345 ± 0.0019	0.000383 ± 0.012	–
UCCUGGAUGUCGAUGCAUAGUAUUUAGUGA	0.00221 ± 0.0038	0.00103 ± 0.0064	0.000844 ± 0.006	0.000498 ± 0.015	–
UCCUGGAUGUCCUUGCAUAGUAUUUAGCUA	0.000722 ± 0.0067	0.00212 ± 0.003	0.000845 ± 0.004	0.000299 ± 0.021	–
UCCUGCUACAGCUUGCAUAGUAUUAUGUAA	0.000725 ± 0.0089	0.00153 ± 0.0052	0.00194 ± 0.0019	0.000172 ± 0.017	–
UCCUGGAUCAGCAACCAUAGUAUUUACAAA	–	–	–	–	0.0023 ± 0.0054
